From the supplement of paper PMC4635364
Where a name gives a salt, the structure may show the parent alone. The list shows a part of the results. This data set is noisy: repeats of one test often differ as much as different tests do.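 Cells: ReNCell VM human fetal ventral-midbrain neural progenitors, differentiated mitogen-free. Blinded raters compared doublecortin-stained (early neurons) or tyrosine hydroxylase-stained (dopaminergic neurons) images with untreated wells, where 0 means no change. After repeats and both raters were averaged, compounds scoring 2 or above became hits for retesting.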

What follows are compounds tested on ReNCell VM (assay: dopaminergic neuron differentiation score (TH+ cell fraction vs untreated, manual image score) (score (0 to 3)); higher = more TH+ dopaminergic neuron differentiation). Settings: library: LOPAC; 2 uM; 4 weeks; BDNF 10 ng/ml + GDNF 10 ng/ml.

Dopaminergic neuron differentiation score, active:
N#C/C(=C/c1ccc(O)c(O)c1)C(=O)NCc1ccccc1 [Tyrphostin AG 490] 2

Dopaminergic neuron differentiation score, inactive:
NC(Cc1cccc(-c2ccccc2CP(=O)(O)O)c1)C(=O)O (stereo not drawn) [Phenylbenzene-omega-phosphono-alpha-amino acid] 0, C=C(C)[C@@H]1CC=C(C(=O)O)CC1 [(-)-Perillic acid] 0, CO/N=C(\C(=O)N[C@@H]1C(=O)N2C(C(=O)O)=C(CSc3nc(=O)c(O)nn3C)CS[C@H]12)c1csc(N)n1 [Ceftriaxone sodium] 0, C[C@]12C=CC(=O)C=C1CC[C@@H]1C2=CC[C@]2(C)[C@@H](C(=O)CN3CCN(c4cc(N5CCCC5)nc(N5CCCC5)n4)CC3)CC[C@@H]12 0, N[C@H](C(=O)O)[C@H]1C[C@@H]1C(=O)O [(2S,1'S,2'S)-2-(carboxycyclopropyl)glycine] 0, C#CCn1c(=O)c2c(ncn2C)n(C)c1=O [3,7-Dimethyl-1-propargylxanthine] 0, CC(C)(C)NC[C@H](O)COc1nsnc1N1CCOCC1 [S(-)-Timolol maleate] 0

Same assay, conditions: library: Prestwick; 2 uM; 4 weeks; BDNF 10 ng/ml + GDNF 10 ng/ml

Dopaminergic neuron differentiation score, inactive:
CCCCCCCCCCCCCCCC[N+](C)(C)CCN(Cc1ccc(OC)cc1)c1ncccn1 [Thonzonium bromide] 0, O=C(O)CCC(=O)Nc1ccc(S(=O)(=O)Nc2nccs2)cc1 [Succinylsulfathiazole] 0, O=c1[nH]cc(F)c(=O)[nH]1 [5-fluorouracil] 0, C[C@]12CCC(=O)C=C1C=C[C@@H]1[C@@H]2CC[C@@]2(C)[C@H]1CC[C@@]21CCC(=O)O1 [Canrenone] 0

Same assay, conditions: library: Spectrum; 2 uM; 4 weeks; BDNF 10 ng/ml + GDNF 10 ng/ml

Dopaminergic neuron differentiation score, inactive:
CN(C)CCC=C1c2ccccc2C=Cc2ccccc21 1, O=[N+]([O-])c1ccc(O)c2ncccc12 0, CC(=O)Nc1ccc(C(=O)O)cc1 0, CN1CCC(=C2c3ccccc3Sc3ccccc32)CC1 0, Oc1ccc([C@H]2Oc3cc(O)cc(O)c3C[C@H]2O)cc1 0, CC(=O)O[C@]1(C(C)=O)CC[C@H]2[C@@H]3C=C(Cl)C4=CC(=O)CC[C@]4(C)[C@H]3CC[C@@]21C 0, C[C@]12CC[C@@H]3c4ccc(O)cc4CC[C@H]3[C@@H]1CCC2=O 0, C[C@@H](O)CN(CCN(C[C@@H](C)O)C[C@@H](C)O)C[C@@H](C)O 0, NC(CO)C(=O)NNCc1ccc(O)c(O)c1O (configuration not stated) 0, Nc1ccn([C@@H]2O[C@H](CO)[C@@H](O)[C@@H]2O)c(=O)n1 0, NC[C@@H]1O[C@H](O[C@H]2[C@@H](O)[C@H](O[C@@H]3[C@@H](O)[C@H](N)C[C@H](N)[C@H]3O[C@H]3O[C@H](CO)[C@@H](O)[C@H](O)[C@H]3N)O[C@@H]2CO)[C@H](N)[C@@H](O)[C@@H]1O 0, O=C(CCCCCCC(=O)Nc1ccccc1)NO 0, C[C@](N)(Cc1ccc(O)cc1)C(=O)O [alpha-METHYL-L-TYROSINE] 0, O=C(CNC(=O)c1ccc(Cl)cc1)NO 0, OC(Cn1cncn1)(Cn1cncn1)c1ccc(F)cc1F 0, Cc1c(C(=O)O)c(O)cc2c1C(=O)c1c(O)c([C@@H]3O[C@H](CO)[C@@H](O)[C@H](O)[C@H]3O)c(O)c(O)c1C2=O 0

Dopaminergic neuron differentiation score, active:
COc1cc(/C=C/C(=O)CC(=O)/C=C/c2ccc(O)c(OC)c2)ccc1O 3

Same assay, conditions: library: Tocriscreen; 2 uM; 4 weeks; BDNF 10 ng/ml + GDNF 10 ng/ml

Dopaminergic neuron differentiation score, inactive:
FC(F)(F)c1cccc(-c2noc(-c3cc(-c4ccccc4)c(C(F)(F)F)s3)n2)c1 0, CCCn1c(=O)[nH]c2nc(-c3ccc(S(=O)(=O)O)cc3)[nH]c2c1=O 0, N[C@H](C(=O)O)c1ccc(O)c(C(=O)O)c1 [(S)-3-Carboxy-4-hydroxyphenylglycine] 0, Nc1ncn([C@H]2C[C@H](O)[C@@H](CO)O2)c(=O)n1 [Decitabine] 0, Cc1ccc(OCC(O)C(C)NC(C)C)c2c1CCC2 (configuration not stated) [ICI-118,551 hydrochloride] 0, N#Cc1c(O)c2c(-c3ccc(-c4ccccc4O)cc3)csc2[nH]c1=O 0, Cc1[nH]c(/C=C2\C(=O)Nc3ccccc32)c(C)c1CCC(=O)O 0, Nc1nc(NCCc2ccc(O)cc2)nc2nc(-c3ccco3)nn12 0
